According to US9273341B2, “Methods for treatment of bacterial infections” (THE JOHNS HOPKINS UNVIERSITY, priority 2010, dated 2016):
In brackets after ≈: the same amount, converted by molar mass.

Test system: M. tuberculosis mutant strain lacking LdtMt2 (ldtMt2::Tn)
Format: cell-based

**Q.** Which MIC does the source give for `NNC(=O)c1ccncc1` [isoniazid] here?
**A.** 0.03 µg/mL (≈ 0.219 µM)
